Results taken from patent publication US20250121006A1, “THERAPEUTIC COMBINATIONS COMPRISING ANTI-STEAP2 CHIMERIC ANTIGEN RECEPTOR T CELLS” (AstraZeneca AB, priority 2023, published 2025).
Some of these results come from one statement about several compounds together.

System: 40A3 dnTFGβRII CAR T cell
Settings: 24, 48, or 72 hours post-treatment

Compound: CNC(=O)c1ccc(N2C(=S)N(c3ccc(C#N)c(C(F)(F)F)c3)C(=O)C2(C)C)cc1F [enzalutamide]
- Doses found to suppress AZD0754 proliferation: ≥ 5 µM
